PubChem BioAssay AID1259424 | University of Nebraska Medical Center | 2018
This is an unselected part of about 14,000 reagents tested. 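Higher correlation or smaller distance means closer resemblance to KSR1 loss; control wells, including KSR1 knockdowns, recur on many plates.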 A reagent listed more than once was tested more than once; the source does not tell the runs apart. Not stated in the record: the time to read-out.

Purpose: 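Rank knockdowns across the genome by resemblance to the KSR1 depletion profile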 (primary screen)
Cells: human HCT116 colon cancer cells
Reagent: siRNA pool against human genes, 50 nM
Measured: 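Log2 levels of six mRNAs (branched-DNA multiplex), adjusted by two reference genes and the non-targeting median, then scored against the average KSR1 knockdown pattern as Pearson r and euclidean distance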
Reading the numbers: mean correlation with KSR1 profile and KSR1 correlation: higher = expression change more like KSR1 knockdown; mean distance from KSR1 profile: higher = expression change less like KSR1 knockdown

gene symbol | mean correlation with KSR1 profile | mean distance from KSR1 profile | KSR1 correlation, replicate 1 | KSR1 correlation, replicate 2 | KSR1 correlation, replicate 3
MED12 (GeneID 9968) | -0.0423 | 3.1 | 0.171 | -0.0801 | -0.234
GAPDHS (GeneID 26330) | -0.212 | 4.61 | -0.0973 | -0.276 | -0.224
CRYGB (GeneID 1419) | 0.607 | 1.02 | 0.558 | 0.497 | 0.728
LINC01101 (GeneID 84931) | -0.142 | 1.99 | -0.0937 | -0.192 | -0.578
ZNF222 (GeneID 7673) | 0.356 | 1.33 | 0.351 | 0.36 | 0.383
AMBP (GeneID 259) | -0.465 | 3.34 | -0.394 | -0.62 | -0.611
CEP162 (GeneID 22832) | -0.00624 | 1.76 | 0.176 | -0.146 | 0.0682
PDGFRA (GeneID 5156) | 0.323 | 1.83 | 0.226 | 0.357 | 0.397
MASP1 (GeneID 5648) | -0.311 | 1.89 | -0.186 | -0.0614 | -0.32
MON1A (GeneID 84315) | 0.775 | 1.78 | 0.677 | 0.751 | 0.86
MIF (GeneID 4282) | -0.576 | 2.17 | -0.347 | -0.763 | -0.675
SRY (GeneID 6736) | 0.739 | 2.6 | 0.695 | 0.527 | 0.696
RSPH6A (GeneID 81492) | 0.785 | 1.51 | 0.7 | 0.766 | 0.71
XPA (GeneID 7507) | 0.0276 | 1.52 | 0.457 | -0.102 | -0.206
MRPL44 (GeneID 65080) | 0.1 | 1.94 | 0.0538 | -0.0968 | -0.0589
KCNN4 (GeneID 3783) | 0.57 | 1.46 | 0.513 | 0.632 | 0.572
LSP1 (GeneID 4046) | 0.439 | 2.41 | 0.519 | 0.455 | 0.341
PEBP1 (GeneID 5037) | 0.807 | 0.854 | 0.501 | 0.75 | 0.647
RABL2B (GeneID 11158) | 0.662 | 1.68 | 0.614 | 0.721 | 0.527
ADRB2 (GeneID 154) | 0.527 | 3.01 | 0.404 | 0.685 | 0.392
ADRB2 (GeneID 154) | 0.359 | 3.7 | 0.293 | 0.302 | 0.293
REXO5 (GeneID 81691) | 0.299 | 2.01 | 0.174 | 0.314 | 0.284
H4C5 (GeneID 8367) | -0.0445 | 1.8 | 0.0174 | 0.169 | -0.288
PTPN13 (GeneID 5783) | -0.71 | 2.42 | -0.574 | -0.701 | -0.713
SCRIB (GeneID 23513) | 0.0961 | 1.43 | -0.0291 | 0.121 | 0.0122
MSH5 (GeneID 4439) | 0.36 | 2.41 | 0.0483 | 0.232 | 0.3
ACVR1B (GeneID 91) | 0.175 | 2.32 | 0.461 | 0.107 | -0.353
PLTP (GeneID 5360) | 0.433 | 1.5 | 0.21 | 0.349 | 0.488
BCL2 (GeneID 596) | 0.642 | 1.96 | 0.797 | 0.475 | 0.0352
PLEKHS1 (GeneID 79949) | 0.304 | 2.94 | 0.396 | 0.274 | 0.304
CDK5RAP1 (GeneID 51654) | 0.638 | 1.86 | 0.844 | 0.542 | 0.149
HNRNPL (GeneID 3191) | -0.55 | 5.98 | -0.683 | -0.517 | -0.5
DLK2 (GeneID 65989) | -0.283 | 5.06 | -0.373 | -0.463 | -0.237
OPLAH (GeneID 26873) | -0.268 | 2.82 | -0.602 | -0.435 | -0.127
ATAD5 (GeneID 79915) | 0.0228 | 1.71 | 0.0906 | -0.145 | 0.252
IL2RB (GeneID 3560) | 0.159 | 1.44 | 0.34 | 0.126 | 0.0383
DSCR4 (GeneID 10281) | 0.183 | 1.93 | 0.3 | -0.0128 | 0.132
FNBP1 (GeneID 23048) | 0.139 | 0.814 | 0.293 | -0.492 | 0.307
TWNK (GeneID 56652) | 0.705 | 0.931 | 0.635 | 0.753 | 0.739
EMC9 (GeneID 51016) | -0.742 | 1.17 | -0.605 | -0.395 | -0.229
PLPP7 (GeneID 84814) | 0.148 | 2.62 | 0.073 | 0.0164 | 0.035
ENTPD1 (GeneID 953) | -0.09 | 3.16 | -0.119 | -0.141 | -0.0271
ALDH3A2 (GeneID 224) | 0.619 | 1.07 | 0.541 | 0.365 | 0.704
RNF123 (GeneID 63891) | -0.377 | 4.4 | -0.339 | -0.339 | -0.295
RNF138 (GeneID 51444) | -0.4 | 1.75 | -0.521 | -0.351 | -0.174
SHMT2 (GeneID 6472) | 0.106 | 2.22 | 0.159 | -0.000849 | 0.175
ZFAND6 (GeneID 54469) | -0.162 | 1.4 | -0.295 | -0.0887 | -0.0534
OR5P2 (GeneID 120065) | 0.687 | 1.75 | 0.681 | 0.717 | 0.649
IL36RN (GeneID 26525) | 0.364 | 0.999 | -0.228 | 0.47 | 0.645
OPRPN (GeneID 58503) | 0.113 | 2.27 | 0.0923 | -0.00692 | 0.118

3 entries from above, sorted by “mean correlation with KSR1 profile”, ascending.
gene symbol | mean correlation with KSR1 profile | mean distance from KSR1 profile | KSR1 correlation, replicate 1 | KSR1 correlation, replicate 2 | KSR1 correlation, replicate 3
ACVR1B (GeneID 91) | 0.175 | 2.32 | 0.461 | 0.107 | -0.353
MSH5 (GeneID 4439) | 0.36 | 2.41 | 0.0483 | 0.232 | 0.3
PLTP (GeneID 5360) | 0.433 | 1.5 | 0.21 | 0.349 | 0.488
